One experiment has as its target GFP-PARP12 (UniProt Q9H0J9). Kind of experiment: co-IP; HEK293T cells co-transfected with the tagged plasmids; extracted 30 h after transfection in 50 mM tris-HCl pH 7.5, 150 mM NaCl, 5 mM EDTA, 1% Triton-X100; immunoprecipitated with Sepharose beads bound to anti-Flag, anti-HA, anti-His or anti-GFP antibodies at 4 °C overnight; washed four times (0.2% Triton-X100); Western blotting.

By UniProt entry, the sequences of proteins in these tests, tags left out.
UniProt Q9H0J9: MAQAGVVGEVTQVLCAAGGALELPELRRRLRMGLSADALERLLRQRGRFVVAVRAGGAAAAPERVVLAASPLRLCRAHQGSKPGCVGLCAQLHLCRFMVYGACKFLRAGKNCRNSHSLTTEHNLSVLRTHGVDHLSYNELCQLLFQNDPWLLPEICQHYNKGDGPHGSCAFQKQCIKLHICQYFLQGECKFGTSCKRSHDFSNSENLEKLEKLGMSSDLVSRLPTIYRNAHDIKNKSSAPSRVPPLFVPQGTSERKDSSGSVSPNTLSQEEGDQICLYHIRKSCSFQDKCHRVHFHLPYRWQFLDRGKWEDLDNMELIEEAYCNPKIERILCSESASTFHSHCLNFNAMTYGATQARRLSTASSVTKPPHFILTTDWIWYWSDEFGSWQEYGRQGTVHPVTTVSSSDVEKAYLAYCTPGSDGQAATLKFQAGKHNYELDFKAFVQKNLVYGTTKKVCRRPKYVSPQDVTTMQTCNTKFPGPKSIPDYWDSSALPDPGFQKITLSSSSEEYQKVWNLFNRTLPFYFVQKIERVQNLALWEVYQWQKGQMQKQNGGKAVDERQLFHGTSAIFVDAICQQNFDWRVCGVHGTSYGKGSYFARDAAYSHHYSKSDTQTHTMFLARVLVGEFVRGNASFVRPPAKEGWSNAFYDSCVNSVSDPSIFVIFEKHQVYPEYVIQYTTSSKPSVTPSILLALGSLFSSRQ

The next experiment has as its target HA-PARP12 (UniProt Q9H0J9). The description is as above.

These are yes or no findings as the source states them, for the method shown. Binding seen in cells or lysates may run through a third protein. Some entries that bind do so weakly or less than the wild type. Where a sequence is shown, tags or fusion partners need not be part of it.

B1: Flag-PARP11 (protein, UniProt Q9NR21 1-338)
chain: MWEANPEMFHKAEELFSKTTNNEVDDMDTSDTQWGWFYLAECGKWHMFQPDTNSQCSVSSEDIEKSFKTNPCGSISFTTSKFSYKIDFAEMKQMNLTTGKQRLIKRAPFSISAFSYICENEAIPMPPHWENVNTQVPYQLIPLHNQTHEYNEVANLFGKTMDRNRIKRIQRIQNLDLWEFFCRKKAQLKKKRGVPQINEQMLFHGTSSEFVEAICIHNFDWRINGIHGAVFGKGTYFARDAAYSSRFCKDDIKHGNTFQIHGVSLQQRHLFRTYKSMFLARVLIGDYINGDSKYMRPPSKDGSYVNLYDSCVDDTWNPKIFVVFDANQIYPEYLIDFH
On to B1, for which the binding result in the experiment with GFP-PARP12 was “binds”.

B2: EGFP-PARP11 WWE domain (domain or fragment, UniProt Q9NR21 22-106)
chain: NEVDDMDTSDTQWGWFYLAECGKWHMFQPDTNSQCSVSSEDIEKSFKTNPCGSISFTTSKFSYKIDFAEMKQMNLTTGKQRLIKR
Turning to B2, the binding entry in the experiment with HA-PARP12 is reported as “binds”.

The values are drawn from publication PMC8240438.
